We go through two substances from publication PMC6105679.

Protein sequences, listed by entry. Tags and fused reporters are not part of them.
UniProt Q5NCY0: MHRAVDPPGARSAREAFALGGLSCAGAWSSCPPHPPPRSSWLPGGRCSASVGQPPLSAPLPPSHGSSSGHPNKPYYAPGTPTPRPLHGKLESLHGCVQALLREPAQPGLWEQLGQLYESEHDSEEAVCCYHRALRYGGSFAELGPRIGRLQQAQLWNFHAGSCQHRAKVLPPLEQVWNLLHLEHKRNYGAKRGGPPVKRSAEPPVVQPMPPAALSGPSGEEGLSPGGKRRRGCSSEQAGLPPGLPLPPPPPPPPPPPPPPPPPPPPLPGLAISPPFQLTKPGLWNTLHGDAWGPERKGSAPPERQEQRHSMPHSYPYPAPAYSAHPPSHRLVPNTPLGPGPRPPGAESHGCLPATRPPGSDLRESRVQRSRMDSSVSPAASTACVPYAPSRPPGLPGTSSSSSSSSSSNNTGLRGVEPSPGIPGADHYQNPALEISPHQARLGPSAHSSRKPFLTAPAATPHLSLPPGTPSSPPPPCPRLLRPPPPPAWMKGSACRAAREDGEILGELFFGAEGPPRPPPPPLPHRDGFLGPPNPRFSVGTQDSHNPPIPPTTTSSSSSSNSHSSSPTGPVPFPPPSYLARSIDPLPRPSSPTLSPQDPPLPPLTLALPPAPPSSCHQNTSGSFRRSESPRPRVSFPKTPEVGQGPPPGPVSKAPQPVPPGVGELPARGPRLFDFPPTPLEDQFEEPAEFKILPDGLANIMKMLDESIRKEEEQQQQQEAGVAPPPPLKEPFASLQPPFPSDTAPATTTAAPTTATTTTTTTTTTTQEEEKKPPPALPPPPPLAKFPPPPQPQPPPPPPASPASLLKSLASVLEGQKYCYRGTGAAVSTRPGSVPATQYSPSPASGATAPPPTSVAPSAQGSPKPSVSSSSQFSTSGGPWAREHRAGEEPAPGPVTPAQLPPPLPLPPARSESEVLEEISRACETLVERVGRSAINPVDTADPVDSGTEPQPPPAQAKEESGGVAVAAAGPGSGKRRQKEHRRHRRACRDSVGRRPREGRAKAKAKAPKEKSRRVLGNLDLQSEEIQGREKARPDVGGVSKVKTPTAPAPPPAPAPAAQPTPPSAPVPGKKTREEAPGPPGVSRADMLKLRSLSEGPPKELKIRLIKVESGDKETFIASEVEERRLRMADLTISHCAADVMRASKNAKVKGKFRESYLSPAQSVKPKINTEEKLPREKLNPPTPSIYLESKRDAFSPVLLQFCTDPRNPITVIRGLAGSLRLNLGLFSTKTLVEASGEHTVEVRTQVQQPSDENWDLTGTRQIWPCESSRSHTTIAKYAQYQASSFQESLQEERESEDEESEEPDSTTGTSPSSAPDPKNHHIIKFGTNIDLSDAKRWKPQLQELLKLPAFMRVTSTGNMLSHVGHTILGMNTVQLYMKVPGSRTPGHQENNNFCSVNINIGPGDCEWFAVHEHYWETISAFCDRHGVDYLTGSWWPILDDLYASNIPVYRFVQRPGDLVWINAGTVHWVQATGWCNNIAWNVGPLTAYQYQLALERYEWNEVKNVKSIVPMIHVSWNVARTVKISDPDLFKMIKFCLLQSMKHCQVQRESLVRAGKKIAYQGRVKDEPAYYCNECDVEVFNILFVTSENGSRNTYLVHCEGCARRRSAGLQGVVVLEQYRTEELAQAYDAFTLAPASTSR
UniProt P28033: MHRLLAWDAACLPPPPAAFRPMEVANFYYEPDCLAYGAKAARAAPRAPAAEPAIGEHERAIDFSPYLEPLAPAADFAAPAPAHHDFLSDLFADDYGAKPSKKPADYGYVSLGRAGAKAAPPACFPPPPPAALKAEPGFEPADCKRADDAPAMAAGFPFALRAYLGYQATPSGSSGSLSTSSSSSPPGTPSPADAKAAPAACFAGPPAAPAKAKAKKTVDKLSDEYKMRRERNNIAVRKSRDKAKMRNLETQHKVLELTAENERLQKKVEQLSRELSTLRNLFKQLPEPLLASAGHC
UniProt P53566: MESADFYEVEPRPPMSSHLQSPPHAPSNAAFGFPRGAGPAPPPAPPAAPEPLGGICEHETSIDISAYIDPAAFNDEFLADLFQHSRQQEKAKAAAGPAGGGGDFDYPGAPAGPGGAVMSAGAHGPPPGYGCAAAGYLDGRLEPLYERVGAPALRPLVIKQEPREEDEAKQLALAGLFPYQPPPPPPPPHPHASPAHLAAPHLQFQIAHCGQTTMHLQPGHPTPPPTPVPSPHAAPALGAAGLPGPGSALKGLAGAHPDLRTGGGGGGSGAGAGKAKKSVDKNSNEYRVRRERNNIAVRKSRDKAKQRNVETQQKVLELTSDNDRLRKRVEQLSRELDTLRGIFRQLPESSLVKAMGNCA

No constants are given. Whether binding was seen depends on the method and setting. Binding seen in cells or lysates may run through a third protein. Some binding calls cover weakened binding; strength is not graded here.

The target of this test is Jmjd3 (Jumonji domain-containing protein D3), mouse, endogenous in 32D cells (mouse (endogenous in 32D)) (UniProt Q5NCY0). The test can be described thus: co-IP; 32D cell lysates immunoprecipitated with Jmjd3 antibody, blotted with Jmjd3, C/ebpα or C/ebpβ antibody; IgG as negative control; lysis buffer 50 mM Tris pH 7.5, 150 mM NaCl, 0.5% Triton X-100; Protein G Dynabeads.

Turning to “C/ebpβ, mouse, endogenous in 32D cells (from UniProt P28033 1-296)”, the binding entry is listed as “binds”. Then “C/ebpα, mouse, endogenous in 32D cells (from UniProt P53566 1-359)”, with “no binding”.
